One data set can be described thus: general procedure: solution-phase peptide synthesis; N,N'-dicyclohexyl carbodiimide. The note with it: coupling step.
The substance Ac-Asp(OBzl)-Ala-Ala-Pro-NH-iBu came in with a step yield of 45%.

In turn, Ac-Asp(OBzl)-Gly-Ala-Pro-NH-iBu had a step yield of 52%.

Regarding BOC-Glu(OBzl)-Ala-Ala-Ala-NH-iBu, the step yield is listed as 55%.

The same data set, now with this note: late stage modification step.
Glu(OBzl)-Ala-Ala-Ala-NH-iBu.HCl yielded a step yield of 69%.

“N^α -Butyrylaspartyl-alanyl-alanyl-proline isobutylamide” came in with a step yield of 76%.

“N^α -caproylglutamyl-alanyl-alanyl-alanine isobutylamide” registered a step yield of 63%.

The values are drawn from patent US4528133A (SPOFA, spojene podniky pro zdravotnickou vyrobu, priority 1982, dated 1985).
